From patent publication US20060223116A1

B1: T-bet, wild type (expressed from cDNA in 293T or EL4 cells, or from the retrovirus RV-T-bet) (protein, UniProt Q9JKD8 1-530, looked up)
chain: MGIVEPGCGDMLTGTEPMPSDEGRGPGADQQHRFFYPEPGAQDPTDRRAGSSLGTPYSGGALVPAAPGRFLGSFAYPPRAQVAGFPGPGEFFPPPAGAEGYPPVDGYPAPDPRAGLYPGPREDYALPAGLEVSGKLRVALSNHLLWSKFNQHQTEMIITKQGRRMFPFLSFTVAGLEPTSHYRMFVDVVLVDQHHWRYQSGKWVQCGKAEGSMPGNRLYVHPDSPNTGAHWMRQEVSFGKLKLTNNKGASNNVTQMIVLQSLHKYQPRLHIVEVNDGEPEAACSASNTHVFTFQETQFIAVTAYQNAEITQLKIDNNPFAKGFRENFESMYASVDTSVPSPPGPNCQLLGGDPFSPLLSNQYPVPSRFYPDLPGQPKDMISQPYWLGTPREHSYEAEFRAVSMKPTLLPSAPGPTVPYYRGQDVLAPGAGWPVAPQYPPKMSPAGWFRPMRTLPMDPGLGSSEEQGSSPSLWPEVTSLQPEPSDSGLGEGDTKRRRISPYPSSGDSSSPAGAPSPFDKETEGQFYNYFPN
B2: T-bet Y525F mutant (protein, UniProt Q9JKD8 1-530, looked up)
chain: B1 chain with Y525F

How the values were obtained:
[1] = target: FLAG-tagged GATA-3; assay: overexpression co-IP
[2] = target: NFATc2; assay: co-IP after coexpression in 293T cells, 4B10 blot
[3] = target: c-Maf; assay: co-IP after coexpression in 293T cells, 4B10 blot
[4] = target: FLAG-tagged GATA-3; assay: coexpression of FLAG-tagged GATA-3 and T-bet in 293T cells, anti-FLAG agarose IP, 4B10 blot

Binder	binding [1]	binding [2]	binding [3]	binding [4]
B1	binds	no binding	no binding	binds
B2	–	–	–	binds

Residue numbers refer to the chain shown, from its start. Numbers in names are those of the source. Results are given in words; binding and its absence hold for the method and conditions named. For some assays here: A result given as binding can be weak or reduced; the word gives no strength. For some assays here: Binding seen in cells or lysates may run through a third protein.
